The supplement of paper PMC12819154, “High-throughput peptide-centric local stability assay extends protein–ligand identification to membrane proteins, tissues and bacteria” (Nature Structural & Molecular Biology, 2025)
The list shows a part of the results. Most entries show no effect beyond the scatter of the controls.

By UniProt entry, the sequences of proteins in these tests, tags left out. Where a name states a change or a piece, a line headed by the entry shows the natural chain unless it says otherwise.
UniProt O43913: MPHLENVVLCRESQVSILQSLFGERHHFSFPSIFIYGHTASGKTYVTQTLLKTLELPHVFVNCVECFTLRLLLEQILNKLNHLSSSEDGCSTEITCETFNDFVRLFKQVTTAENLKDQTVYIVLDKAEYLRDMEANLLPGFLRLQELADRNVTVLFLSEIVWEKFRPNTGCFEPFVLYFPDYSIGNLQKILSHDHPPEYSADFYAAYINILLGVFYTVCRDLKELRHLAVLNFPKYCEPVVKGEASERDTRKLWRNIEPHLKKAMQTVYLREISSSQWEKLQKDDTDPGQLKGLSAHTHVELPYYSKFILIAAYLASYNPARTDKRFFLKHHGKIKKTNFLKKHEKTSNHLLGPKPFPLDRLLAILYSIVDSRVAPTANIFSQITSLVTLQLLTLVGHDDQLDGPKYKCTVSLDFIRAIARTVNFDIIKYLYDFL
UniProt O15534, whole entry: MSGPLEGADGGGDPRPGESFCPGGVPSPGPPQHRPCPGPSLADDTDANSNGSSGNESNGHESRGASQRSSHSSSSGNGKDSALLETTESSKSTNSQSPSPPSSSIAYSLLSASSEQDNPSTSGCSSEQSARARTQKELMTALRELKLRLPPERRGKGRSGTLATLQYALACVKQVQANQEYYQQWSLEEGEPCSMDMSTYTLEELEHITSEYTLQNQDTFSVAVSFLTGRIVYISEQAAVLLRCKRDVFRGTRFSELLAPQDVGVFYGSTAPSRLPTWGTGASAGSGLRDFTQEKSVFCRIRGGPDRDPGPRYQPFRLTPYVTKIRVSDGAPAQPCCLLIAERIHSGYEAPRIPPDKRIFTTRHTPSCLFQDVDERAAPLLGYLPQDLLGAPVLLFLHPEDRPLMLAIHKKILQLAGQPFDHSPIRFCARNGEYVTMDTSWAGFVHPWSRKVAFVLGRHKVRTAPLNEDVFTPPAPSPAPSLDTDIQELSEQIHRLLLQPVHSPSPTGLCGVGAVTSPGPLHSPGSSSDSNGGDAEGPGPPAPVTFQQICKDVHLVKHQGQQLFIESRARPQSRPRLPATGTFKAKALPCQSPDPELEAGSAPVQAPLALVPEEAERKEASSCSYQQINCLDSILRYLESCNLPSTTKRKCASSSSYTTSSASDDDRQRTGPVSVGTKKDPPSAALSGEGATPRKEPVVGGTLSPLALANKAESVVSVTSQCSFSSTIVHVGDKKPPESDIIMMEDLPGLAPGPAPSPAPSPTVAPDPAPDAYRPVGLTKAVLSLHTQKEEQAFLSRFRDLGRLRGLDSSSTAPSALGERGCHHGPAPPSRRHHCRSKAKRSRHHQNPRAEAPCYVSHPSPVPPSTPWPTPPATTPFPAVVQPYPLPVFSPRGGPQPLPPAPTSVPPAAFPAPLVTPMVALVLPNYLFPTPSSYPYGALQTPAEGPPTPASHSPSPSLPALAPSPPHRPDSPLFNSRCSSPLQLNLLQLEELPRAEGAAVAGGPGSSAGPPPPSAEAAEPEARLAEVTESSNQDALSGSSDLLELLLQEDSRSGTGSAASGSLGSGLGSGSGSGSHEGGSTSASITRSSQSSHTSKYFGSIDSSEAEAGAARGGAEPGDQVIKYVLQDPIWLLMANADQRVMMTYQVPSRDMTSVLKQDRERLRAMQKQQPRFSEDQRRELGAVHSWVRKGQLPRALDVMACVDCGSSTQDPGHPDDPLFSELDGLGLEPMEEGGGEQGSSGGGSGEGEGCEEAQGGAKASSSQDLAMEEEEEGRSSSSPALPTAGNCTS
UniProt O75191: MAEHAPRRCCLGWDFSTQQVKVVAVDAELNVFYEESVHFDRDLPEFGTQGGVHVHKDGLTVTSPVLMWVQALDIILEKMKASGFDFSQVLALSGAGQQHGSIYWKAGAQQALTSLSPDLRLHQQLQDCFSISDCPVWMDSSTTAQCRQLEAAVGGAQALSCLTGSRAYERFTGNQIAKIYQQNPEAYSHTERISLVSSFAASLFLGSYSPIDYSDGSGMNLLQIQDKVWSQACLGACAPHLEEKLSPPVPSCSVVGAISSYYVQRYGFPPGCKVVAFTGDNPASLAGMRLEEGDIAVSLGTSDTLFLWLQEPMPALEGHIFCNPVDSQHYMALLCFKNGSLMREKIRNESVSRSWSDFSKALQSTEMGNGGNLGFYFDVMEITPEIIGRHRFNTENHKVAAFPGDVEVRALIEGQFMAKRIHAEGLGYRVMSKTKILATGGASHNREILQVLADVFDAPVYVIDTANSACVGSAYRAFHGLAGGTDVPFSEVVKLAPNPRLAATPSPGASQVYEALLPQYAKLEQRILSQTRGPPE
UniProt O60304: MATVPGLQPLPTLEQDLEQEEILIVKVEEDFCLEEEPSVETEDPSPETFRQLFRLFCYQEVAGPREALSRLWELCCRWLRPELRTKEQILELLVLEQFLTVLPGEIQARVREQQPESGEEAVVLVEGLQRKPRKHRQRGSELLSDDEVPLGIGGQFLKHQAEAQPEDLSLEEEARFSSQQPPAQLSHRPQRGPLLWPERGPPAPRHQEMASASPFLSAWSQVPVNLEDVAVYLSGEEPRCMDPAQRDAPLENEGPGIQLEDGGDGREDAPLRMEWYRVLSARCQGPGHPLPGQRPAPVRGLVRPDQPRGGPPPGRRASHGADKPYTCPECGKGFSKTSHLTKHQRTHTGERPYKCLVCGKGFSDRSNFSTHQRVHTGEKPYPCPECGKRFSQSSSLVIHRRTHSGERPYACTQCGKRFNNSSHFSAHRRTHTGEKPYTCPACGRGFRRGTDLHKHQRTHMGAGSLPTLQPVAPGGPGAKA
UniProt O43296: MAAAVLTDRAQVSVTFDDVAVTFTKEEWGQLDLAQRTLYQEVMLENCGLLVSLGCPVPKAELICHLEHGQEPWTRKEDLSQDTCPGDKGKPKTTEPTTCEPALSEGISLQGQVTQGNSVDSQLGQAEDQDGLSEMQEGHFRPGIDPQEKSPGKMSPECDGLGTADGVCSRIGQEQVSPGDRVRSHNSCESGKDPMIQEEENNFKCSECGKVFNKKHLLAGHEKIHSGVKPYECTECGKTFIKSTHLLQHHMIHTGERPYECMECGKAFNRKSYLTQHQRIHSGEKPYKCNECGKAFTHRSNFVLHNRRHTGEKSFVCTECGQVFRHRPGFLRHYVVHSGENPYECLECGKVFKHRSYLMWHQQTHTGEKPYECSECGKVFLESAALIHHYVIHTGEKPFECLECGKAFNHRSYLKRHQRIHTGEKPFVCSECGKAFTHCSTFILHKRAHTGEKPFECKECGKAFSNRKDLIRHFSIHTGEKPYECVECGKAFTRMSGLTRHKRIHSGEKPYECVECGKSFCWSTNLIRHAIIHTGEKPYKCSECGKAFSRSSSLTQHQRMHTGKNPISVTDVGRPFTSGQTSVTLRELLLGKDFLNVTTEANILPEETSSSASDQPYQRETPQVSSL
UniProt O43166: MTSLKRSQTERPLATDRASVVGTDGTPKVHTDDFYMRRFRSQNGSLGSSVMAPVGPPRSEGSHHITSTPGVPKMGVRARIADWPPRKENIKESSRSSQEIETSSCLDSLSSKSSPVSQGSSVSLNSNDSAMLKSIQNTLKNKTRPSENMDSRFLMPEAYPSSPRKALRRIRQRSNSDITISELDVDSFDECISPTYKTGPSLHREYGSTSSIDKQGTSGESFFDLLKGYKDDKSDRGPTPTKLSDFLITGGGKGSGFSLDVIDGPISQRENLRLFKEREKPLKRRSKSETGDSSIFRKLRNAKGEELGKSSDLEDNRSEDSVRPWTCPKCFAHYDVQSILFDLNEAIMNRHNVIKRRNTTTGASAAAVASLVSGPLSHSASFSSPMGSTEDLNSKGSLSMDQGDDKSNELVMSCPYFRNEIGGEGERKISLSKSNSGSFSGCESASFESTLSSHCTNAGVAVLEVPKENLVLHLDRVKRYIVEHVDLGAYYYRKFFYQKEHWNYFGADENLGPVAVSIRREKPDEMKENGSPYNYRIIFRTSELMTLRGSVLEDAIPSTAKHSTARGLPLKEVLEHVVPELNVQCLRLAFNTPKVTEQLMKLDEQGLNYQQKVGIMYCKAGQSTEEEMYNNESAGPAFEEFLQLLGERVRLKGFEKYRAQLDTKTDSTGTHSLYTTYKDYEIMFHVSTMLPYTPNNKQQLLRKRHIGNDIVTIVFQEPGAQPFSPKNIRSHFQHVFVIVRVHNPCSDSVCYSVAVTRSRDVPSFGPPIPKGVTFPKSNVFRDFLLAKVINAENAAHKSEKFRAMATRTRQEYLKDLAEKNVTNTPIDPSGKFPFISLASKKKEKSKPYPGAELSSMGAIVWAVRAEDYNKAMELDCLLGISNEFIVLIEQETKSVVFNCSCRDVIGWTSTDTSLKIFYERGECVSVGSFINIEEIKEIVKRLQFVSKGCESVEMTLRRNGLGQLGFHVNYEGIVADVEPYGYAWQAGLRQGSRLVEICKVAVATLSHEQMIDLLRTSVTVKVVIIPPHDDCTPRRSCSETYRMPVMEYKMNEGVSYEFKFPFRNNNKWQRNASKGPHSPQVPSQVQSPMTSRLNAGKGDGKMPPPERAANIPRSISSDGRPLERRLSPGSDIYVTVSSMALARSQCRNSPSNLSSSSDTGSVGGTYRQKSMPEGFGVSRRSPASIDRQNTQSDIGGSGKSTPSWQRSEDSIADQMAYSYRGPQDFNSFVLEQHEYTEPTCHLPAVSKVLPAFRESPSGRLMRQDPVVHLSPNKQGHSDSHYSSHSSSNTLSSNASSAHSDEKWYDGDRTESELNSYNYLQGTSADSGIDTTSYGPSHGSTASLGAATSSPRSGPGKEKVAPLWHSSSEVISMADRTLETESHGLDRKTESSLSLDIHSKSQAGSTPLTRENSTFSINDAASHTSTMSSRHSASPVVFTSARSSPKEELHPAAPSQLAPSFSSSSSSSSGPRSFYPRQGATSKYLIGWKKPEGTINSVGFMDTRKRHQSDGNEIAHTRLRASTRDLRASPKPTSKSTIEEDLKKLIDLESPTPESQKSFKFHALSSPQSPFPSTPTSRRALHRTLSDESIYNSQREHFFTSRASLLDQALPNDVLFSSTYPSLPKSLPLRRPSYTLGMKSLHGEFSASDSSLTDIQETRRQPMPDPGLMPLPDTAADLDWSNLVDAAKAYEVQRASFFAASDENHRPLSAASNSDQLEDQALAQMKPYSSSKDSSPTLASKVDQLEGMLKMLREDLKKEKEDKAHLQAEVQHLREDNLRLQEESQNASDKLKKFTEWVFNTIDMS
UniProt O75396: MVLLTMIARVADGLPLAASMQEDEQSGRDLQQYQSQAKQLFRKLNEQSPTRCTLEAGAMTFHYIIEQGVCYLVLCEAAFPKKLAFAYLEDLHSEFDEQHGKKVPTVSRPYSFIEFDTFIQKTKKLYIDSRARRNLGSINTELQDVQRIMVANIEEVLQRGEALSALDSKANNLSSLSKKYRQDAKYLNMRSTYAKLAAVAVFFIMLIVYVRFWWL
UniProt O60829: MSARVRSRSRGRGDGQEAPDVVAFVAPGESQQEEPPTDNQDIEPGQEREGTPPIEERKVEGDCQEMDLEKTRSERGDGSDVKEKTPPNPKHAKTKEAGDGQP
UniProt O43502: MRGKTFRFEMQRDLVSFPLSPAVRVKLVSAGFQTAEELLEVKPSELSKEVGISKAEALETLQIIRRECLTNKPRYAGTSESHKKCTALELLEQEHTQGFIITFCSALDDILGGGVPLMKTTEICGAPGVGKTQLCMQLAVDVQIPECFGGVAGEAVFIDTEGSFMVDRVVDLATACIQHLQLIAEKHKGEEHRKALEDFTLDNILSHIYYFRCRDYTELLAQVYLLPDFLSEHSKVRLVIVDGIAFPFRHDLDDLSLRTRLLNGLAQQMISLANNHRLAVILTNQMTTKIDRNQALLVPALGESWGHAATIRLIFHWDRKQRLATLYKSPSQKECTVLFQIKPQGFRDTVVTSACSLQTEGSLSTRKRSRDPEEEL
UniProt O43929: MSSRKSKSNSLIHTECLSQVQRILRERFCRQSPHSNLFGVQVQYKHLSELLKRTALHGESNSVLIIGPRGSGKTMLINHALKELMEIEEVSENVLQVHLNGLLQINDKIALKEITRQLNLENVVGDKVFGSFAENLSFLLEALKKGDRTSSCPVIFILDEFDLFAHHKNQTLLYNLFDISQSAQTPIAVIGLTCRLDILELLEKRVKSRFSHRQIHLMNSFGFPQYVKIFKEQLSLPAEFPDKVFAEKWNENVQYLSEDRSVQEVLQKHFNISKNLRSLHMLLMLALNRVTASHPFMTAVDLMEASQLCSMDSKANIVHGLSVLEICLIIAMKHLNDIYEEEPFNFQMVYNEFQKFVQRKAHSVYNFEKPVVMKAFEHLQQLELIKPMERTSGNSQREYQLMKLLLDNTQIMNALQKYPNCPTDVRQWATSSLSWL
UniProt O60930: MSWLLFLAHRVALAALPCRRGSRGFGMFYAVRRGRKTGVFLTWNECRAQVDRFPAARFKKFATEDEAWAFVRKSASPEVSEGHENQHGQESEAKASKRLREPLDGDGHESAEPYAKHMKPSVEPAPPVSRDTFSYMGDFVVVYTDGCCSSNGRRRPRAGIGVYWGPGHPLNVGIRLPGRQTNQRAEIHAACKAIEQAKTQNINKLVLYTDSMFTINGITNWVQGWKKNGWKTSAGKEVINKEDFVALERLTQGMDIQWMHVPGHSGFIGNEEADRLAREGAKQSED

compound: Cc1nc(Nc2ncc(C(=O)Nc3c(C)cccc3Cl)s2)cc(N2CCN(CCO)CC2)n1 [dasatinib]; experiment: log2 fold change of tryptic peptide abundance, ligand vs vehicle (limited proteolysis) (log2 ratio); higher = more trypsin-susceptible (destabilized); conditions: ligand concentration: 5 uM; sample: K562 cleared lysate

Target | log2 fold change
UniProt O43422 (peptide sequence: INSGEEVLR, peptide start residue: 209) | 0.108
CBFA2T3 (peptide sequence: RYSDAEDTKK, peptide start residue: 437) (UniProt O75081) | -1.27
UniProt O43913 (peptide sequence: TYVTQTLLK, peptide start residue: 44) | 0.149
POLQ (peptide sequence: TSFPLQIK, peptide start residue: 1112) (UniProt O75417) | 0.509
PER1 (peptide sequence: AVLSLHTQKEEQAFLSR, peptide start residue: 781) (UniProt O15534) | 0.557
XYLB (peptide sequence: ALIEGQFMAK, peptide start residue: 410) (UniProt O75191) | -0.375
UniProt O60304 (peptide sequence: FSSQQPPAQLSHRPQR, peptide start residue: 176) | 0.339
UniProt O43296 (peptide sequence: HFSIHTGEKPYECVECGK, peptide start residue: 466) | -0.0295
SIPA1L1 (peptide sequence: QNTQSDIGGSGK, peptide start residue: 1188) (UniProt O43166) | -1.26
HNRNPR (peptide sequence: SFSEFGKLER, peptide start residue: 360) (UniProt O43390) | -0.102
DNAJC13 (peptide sequence: DMFEKVNK, peptide start residue: 1341) (UniProt O75165) | -0.597
ZFC3H1 (peptide sequence: KQAEEEER, peptide start residue: 458) (UniProt O60293) | -0.293
ZNF207 (peptide sequence: ILIQHQK, peptide start residue: 25) (UniProt O43670) | -0.485
CTNND1 (peptide sequence: HAIPNLVK, peptide start residue: 750) (UniProt O60716) | -0.111
ARHGAP6 (peptide sequence: HADDNISK, peptide start residue: 532) (UniProt O43182) | 0.299
BUB1B (peptide sequence: EIELGNEDYCIKR, peptide start residue: 758) (UniProt O60566) | 0.16
ACSL4 (peptide sequence: VGAPLICCEIK, peptide start residue: 488) (UniProt O60488) | 0.564
KALRN (peptide sequence: LPQASPRPYSSVPAGSEKPPK, peptide start residue: 2258) (UniProt O60229) | 0.125
UniProt O60336 (peptide sequence: WACLGEGTTPKPR, peptide start residue: 1344) | -0.317

Look-ups from above.
Entry of HNRNPR (peptide sequence: SFSEFGKLER, peptide start residue: 360) (UniProt O43390) under log2 fold change: -0.102
Entry of UniProt O43422 (peptide sequence: INSGEEVLR, peptide start residue: 209) under log2 fold change: 0.108

Remaining list, next part:

Target | log2 fold change
UniProt O75396 (peptide sequence: ANNLSSLSKK, peptide start residue: 170) | 0.174
PAGE4 (peptide sequence: KVEGDCQEMDLEK, peptide start residue: 58) (UniProt O60829) | 0.116
UniProt O75290 (peptide sequence: GSNLNQHR, peptide start residue: 569) | 0.487
RAD51C (peptide sequence: IDRNQALLVPALGESWGHAATIR, peptide start residue: 290) (UniProt O43502) | 0.248
PHACTR2 (peptide sequence: KELNEFK, peptide start residue: 677) (UniProt O75167) | 0.377
RBFOX2 (peptide sequence: MVTPYANGWK, peptide start residue: 205) (UniProt O43251) | -0.0445
SIAH2 (peptide sequence: LSCCPTCR, peptide start residue: 108) (UniProt O43255) | -0.449
ZNHIT1 (peptide sequence: LPQFDDDADTGKK, peptide start residue: 55) (UniProt O43257) | -0.219
UniProt O43929 (peptide sequence: QIHLMNSFGFPQYVK, peptide start residue: 214) | 0.114
UniProt O43314 (peptide sequence: QIVVGICSMAK, peptide start residue: 43) | 0.585
DENND4B (peptide sequence: RSPMDSLLHPR, peptide start residue: 1091) (UniProt O75064) | -0.365
MAGEC1 (peptide sequence: SEGEDSSDPLQRPPEGK, peptide start residue: 58) (UniProt O60732) | -0.172
BUB1 (peptide sequence: TEFQLGSK, peptide start residue: 778) (UniProt O43683) | -0.309
CYTH3 (peptide sequence: ELIDDIER, peptide start residue: 33) (UniProt O43739) | -0.0899
NDUFS4 (peptide sequence: NGWSYDIEER, peptide start residue: 141) (UniProt O43181) | -0.164
TPST2 (peptide sequence: STDQVIKPVNLEALSK, peptide start residue: 285) (UniProt O60704) | -0.0101
GTPBP6 (peptide sequence: GNFEHLTEK, peptide start residue: 156) (UniProt O43824) | 0.43
RNASEH1 (peptide sequence: LREPLDGDGHESAEPYAK, peptide start residue: 99) (UniProt O60930) | 0.277
